Results from PubChem BioAssay AID328 (DTP/NCI, 2004).
The list is a part of this screen's results and no random one: it gathers tests that were run many times, whatever their T/C, doses with no T/C, and many T/C values between a quarter and a half above the control. Other doses and runs of a compound stand elsewhere. T/C gives the treated animals as a percentage of the vehicle group. Some doses have a count of surviving animals in place of a T/C: the source holds a T/C of zero for them, seemingly a mark for toxic or unscored doses. Some doses without a T/C left all or most animals alive at the check, yet need not have been tolerated: survival well below the control is almost never listed, so the zero probably covers shortened survival too. Survivors were counted at the toxicity check, usually on the fifth day, unless a day is given; later deaths do not show. Schedules are NCI's codes, taken here to give the interval after Q, in days (D) or hours (H), and the number of doses after X. Some entries were tested several times; the values are given in rising order. Where survival is the endpoint, the PubChem record calls one and a half times the control and up active, and a quarter to a half above the control has no call in these data; cut-offs in other NCI protocols can differ. Some T/C values are followed by the survivors on the day toxicity was checked, most often the fifth; without a count, all were alive then.

Test system: BDF1 mice, P388 leukemia ip, median survival T/C
Test: NCI In Vivo Anticancer Drug Screen. Data for tumor model P388 Leukemia (intraperitoneal) in B6D2F1 (BDF1) mice
Conditions: T/C endpoint: median survival time, higher T/C = longer survival
In short: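 Reported as T/C, where T is the survival measurement in dosed animals and C the same measurement in vehicle controls.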

[1] = dose: 50.0 mg/kg/injection, schedule: Q01DX009 (ip), vehicle: saline
[2] = dose: 100.0 mg/kg/injection, schedule: Q01DX009 (ip), vehicle: saline
[3] = dose: 200.0 mg/kg/injection, schedule: Q01DX009 (ip), vehicle: saline
[4] = dose: 50.0 mg/kg/injection, schedule: Q01DX009 (ip), vehicle: other
[5] = dose: 200.0 mg/kg/injection, schedule: Q01DX009 (ip), vehicle: Klucel (hydroxypropylcellulose) (HPC)
[6] = dose: 400.0 mg/kg/injection, schedule: Q04DX003 (ip), vehicle: saline with Tween-80
[7] = dose: 50.0 mg/kg/injection, schedule: Q01DX005 (ip), vehicle: saline with Tween-80
[8] = dose: 100.0 mg/kg/injection, schedule: Q01DX009 (ip), vehicle: saline with Tween-80
[9] = dose: 200.0 mg/kg/injection, schedule: Q01DX009 (ip), vehicle: saline with Tween-80
[10] = dose: 100.0 mg/kg/injection, schedule: Q04DX003 (ip), vehicle: saline
[11] = dose: 16.5 mg/kg/injection, schedule: Q04DX003 (ip), vehicle: saline
[12] = dose: 25.0 mg/kg/injection, schedule: Q04DX003 (ip), vehicle: saline
[13] = dose: 50.0 mg/kg/injection, schedule: Q01DX009 (ip), vehicle: saline with Tween-80
[14] = dose: 400.0 mg/kg/injection, schedule: Q01DX009 (ip), vehicle: saline with Tween-80
[15] = dose: 400.0 mg/kg/injection, schedule: Q04DX003 (ip), vehicle: Klucel (hydroxypropylcellulose) (HPC)

## c1ccc2c(CC3NCCN3)cccc2c1
[1]
  survivor count: 3 of 6
[2]
  survivor count: 2 of 6
[3]
  survivor count: 0 of 6

## COCc1cnc2nc(N)nc(N)c2n1
dose: 6.25 mg/kg/injection, schedule: Q01DX009 (ip), vehicle: other
  survivor count: 1 of 3
dose: 12.5 mg/kg/injection, schedule: Q01DX009 (ip), vehicle: other
  survivor count: 0 of 3
dose: 25.0 mg/kg/injection, schedule: Q01DX009 (ip), vehicle: other
  survivor count: 0 of 3
[4]
  survivor count: 0 of 3

## N#CCSc1ncnc2nc[nH]c12
dose: 240.0 mg/kg/injection, schedule: Q01DX010 (ip), vehicle: saline
  survivor count: 0 of 6 and 2 of 6

## NCCSC(c1ccccc1)c1ccccc1
[5]
  survivor count: 2 of 6

## CCCCC(=O)N(c1ccc(Nc2c3ccccc3nc3cc([N+](=O)[O-])ccc23)cc1)S(C)(=O)=O
dose: 1.46 mg/kg/injection, schedule: Q04DX003 (ip), vehicle: saline with Tween-80
  T/C: 145 % of control
dose: 22.0 mg/kg/injection, schedule: Q04DX003 (ip), vehicle: saline with Tween-80
  T/C: 129 % of control
dose: 100.0 mg/kg/injection, schedule: Q04DX003 (ip), vehicle: saline with Tween-80
  survivor count: 6 of 6
dose: 200.0 mg/kg/injection, schedule: Q04DX003 (ip), vehicle: saline with Tween-80
  survivor count: 6 of 6
[6]
  survivor count: 5 of 6

## COC(=O)C1CN(c2ccccc2)N=C1C(C)=O (centres undefined)
[6]
  survivor count: 6 of 6

## NC(N)=NO
dose: 75.0 mg/kg/injection, schedule: Q01DX009 (ip), vehicle: saline, evaluated on day 5
  T/C: 131 % of control
dose: 75.0 mg/kg/injection, schedule: Q01DX009 (ip), vehicle: saline, evaluated on day 60
  T/C: 129 % of control
dose: 100.0 mg/kg/injection, schedule: Q01DX009 (ip), vehicle: saline, evaluated on day 5
  T/C: 136 % of control
dose: 100.0 mg/kg/injection, schedule: Q01DX009 (ip), vehicle: saline, evaluated on day 60
  T/C: 133 % of control
dose: 150.0 mg/kg/injection, schedule: Q01DX009 (ip), vehicle: saline, evaluated on day 5
  T/C: 149 % of control
dose: 150.0 mg/kg/injection, schedule: Q01DX009 (ip), vehicle: saline, evaluated on day 60
  T/C: 145 % of control

## CCS(=O)(=O)C(Br)CBr (centres undefined)
[5]
  survivor count: 4 of 6
dose: 400.0 mg/kg/injection, schedule: Q01DX009 (ip), vehicle: Klucel (hydroxypropylcellulose) (HPC)
  survivor count: 1 of 6

## Cc1ccc(N2CC(=O)N3CCCN3C(=O)C2)cc1
[7]
  survivor count: 5 of 5
dose: 100.0 mg/kg/injection, schedule: Q01DX005 (ip), vehicle: saline with Tween-80
  survivor count: 5 of 5
dose: 200.0 mg/kg/injection, schedule: Q01DX005 (ip), vehicle: saline with Tween-80
  survivor count: 5 of 5

## O=C1c2ccc(O)cc2C(=O)c2ccc(O)cc21
[8]
  T/C: 140 % of control
[9]
  T/C: 125 % of control

## O=S1(=O)N2CN3CN(C2)CN1C3
dose: 25.0 mg/kg/injection, schedule: Q04DX003 (ip), vehicle: Klucel (hydroxypropylcellulose) (HPC)
  T/C: 138 % of control

## CCCCCCCCCCCCCC[S+](C)C
[1]
  survivor count: 0 of 6
[10]
  survivor count: 0 of 6

## CCCCN=CC(C)(C)NCCCC
[3]
  survivor count: 0 of 6 and 2 of 6
dose: 400.0 mg/kg/injection, schedule: Q04DX003 (ip), vehicle: saline
  survivor count: 3 of 6

## Cc1nn(CCO)c(C)c1N=[N+]([O-])c1c(C)nn(CCO)c1C
dose: 30.0 mg/kg/injection, schedule: Q01DX009 (ip), vehicle: saline with Tween-80
  T/C: 126 % of control
dose: 60.0 mg/kg/injection, schedule: Q01DX009 (ip), vehicle: saline with Tween-80
  T/C: 132 % of control [6 of 7 alive]

## C[n+]1c(-c2ccccc2)c2cc(N)ccc2c2ccccc21
dose: 4.7 mg/kg/injection, schedule: Q04DX003 (ip), vehicle: saline
  T/C: 125 % of control
dose: 6.6 mg/kg/injection, schedule: Q01DX009 (ip), vehicle: saline
  T/C: 131 % of control
dose: 7.2 mg/kg/injection, schedule: Q04DX003 (ip), vehicle: saline
  T/C: 136 % of control
[11]
  T/C: 125 % of control
  survivor count: 6 of 6
[12]
  T/C: 130 and 131 % of control
  survivor count: 6 of 6
dose: 37.5 mg/kg/injection, schedule: Q04DX003 (ip), vehicle: saline
  survivor count: 2 of 6 and 5 of 6
dose: 50.0 mg/kg/injection, schedule: Q04DX003 (ip), vehicle: saline
  survivor count: 0 of 6
[10]
  survivor count: 0 of 6

## C=C1N(c2nc(Cl)nc(Cl)n2)c2ccccc2C1(C)C
[13]
  survivor count: 3 of 6
[8]
  survivor count: 2 of 6 and 3 of 6

## CCOC(=O)C(Cc1ccccc1Cl)(Cc1ccccc1Cl)c1ccccc1
[14]
  T/C: 130 % of control

## CC1(C)N=C(N)N=C(N)N1c1cccc(Br)c1
dose: 6.2 mg/kg/injection, schedule: Q04DX003 (ip), vehicle: saline
  T/C: 138 % of control
dose: 9.2 mg/kg/injection, schedule: Q04DX003 (ip), vehicle: saline
  T/C: 144 % of control
dose: 14.0 mg/kg/injection, schedule: Q04DX003 (ip), vehicle: saline
  T/C: 127 % of control
dose: 21.0 mg/kg/injection, schedule: Q04DX003 (ip), vehicle: saline
  T/C: 140 % of control
[10]
  survivor count: 3 of 6
dose: 200.0 mg/kg/injection, schedule: Q04DX003 (ip), vehicle: saline
  survivor count: 0 of 6

## O=C1CC2c3ccccc3C1C1C(=O)OC(=O)C21 (centres undefined)
[15]
  survivor count: 1 of 6

## CN(C)CCC=C1c2ccccc2-c2ccccc21
[2]
  survivor count: 6 of 6
[3]
  survivor count: 0 of 6

## Cc1cc(N(C)C)ccc1C=O
dose: 200.0 mg/kg/injection, schedule: Q04DX003 (ip), vehicle: Klucel (hydroxypropylcellulose) (HPC)
  survivor count: 6 of 6

## Cc1c(O)c2c(c(O)c1Cc1ccc(CN)cc1)C(=O)c1ccccc1C2=O
dose: 50.0 mg/kg/injection, schedule: Q01DX009 (ip), vehicle: water
  survivor count: 6 of 6
dose: 100.0 mg/kg/injection, schedule: Q01DX009 (ip), vehicle: water
  survivor count: 1 of 6
dose: 200.0 mg/kg/injection, schedule: Q01DX009 (ip), vehicle: water
  survivor count: 1 of 6

## CC(=O)N1C2=CCCC3CCCCC23c2ccccc21 (centres undefined)
[9]
  T/C: 130 % of control

## O=C1c2ccccc2C(=O)N1CNc1ncccn1
[7]
  survivor count: 5 of 5

## CCS(=O)(=O)c1ncc2cnccn12
dose: 400.0 mg/kg/injection, schedule: Q04DX003 (ip), vehicle: water
  survivor count: 0 of 6

## OCCN(CCO)c1cc(O)cc(O)c1
[13]
  survivor count: 6 of 6
[8]
  survivor count: 6 of 6
[9]
  survivor count: 6 of 6
[14]
  survivor count: 6 of 6

## CN1C=c2c3c(ccc2=C2C=CC4C=C5OCOC5=CC4=C21)OCO3 (centres undefined)
dose: 40.0 mg/kg/injection, schedule: Q01DX010 (ip), vehicle: saline
  survivor count: 4 of 6

## c1ccc(C23c4ccccc4C(=NC4CCCCC4)C2N3C2CCCCC2)cc1 (centres undefined)
[15]
  survivor count: 6 of 6

## COc1ccc(C2=NNC(=O)OC2c2ccccc2)cc1 (centres undefined)
[8]
  T/C: 140 % of control

## O=C1CCCC2C3CC(CN12)C1CC(O)CCN1C3 (centres undefined)
dose: 160.0 mg/kg/injection, schedule: Q01DX010 (ip), vehicle: saline
  survivor count: 2 of 6

## CC1(C)C2CCC(CN)C1C2 (centres undefined)
[4]
  T/C: 134 % of control
dose: 200.0 mg/kg/injection, schedule: Q01DX009 (ip), vehicle: other
  survivor count: 0 of 6
